Laboratory results reported in patent publication US20250180543A1, “COMPOSITIONS AND METHODS OF A HIGH-THROUGHPUT SCREEN TO IDENTIFY COMPOUNDS THAT ALTER MACROPHAGE-MEDIATED CYTOTOXICITY OF TARGET CELLS” (Whitehead Institute for Biomedical Research, priority 2022, published 2025).
For some assays here: At least one compound was matched to its structure with a doubt left. Some results were stated once for a whole list of compounds, not compound by compound.

Legend:
[1] = system: GFP+ PC9 cells; conditions: with anti-CD47 therapy, drug 5.0 uM
From the text: To identify drugs that make lung cancer cells more vulnerable to macrophage-mediated destruction, a novel, unbiased screening platform that measures macrophage anti-tumor function in a high-throughput manner was developed (FIG. 15A). We first employed this platform to study EGFR mutant lung cancer. We differentiated primary human macrophages ex vivo and co-cultured them in 384-well plates with GFP+ PC9 cells, a human EGFR mutant lung cancer cell line. A small molecule library of 800 FDA-approved drugs (FIGS. 20A-B) was added to the wells at 5.0 uM concentration along with a CD47-blocking antibody. We then cocultured the cells for 3-5 days and performed whole-well imaging to quantify the surviving GFP+ area. We evaluated the ability of each drug to kill the GFP+ PC9 cells in the presence of activated macrophages compared to GFP+ PC9 cells alone.
GFP+ PC9 cells and primary human macrophages were co-cultured in 384-well plates in IMDM supplemented with 10% ultra-low IgG fetal bovine serum, 100 units/mL penicillin, 100 ug/mL streptomycin, and 292 ug/mL L-glutamine and 20 ng/mL human M-CSF. […] Wells were imaged using automated fluorescence microscopy with an Incucyte S3 system (Sartorius). Automated image analysis was performed using Incucyte Analysis Software (Sartorius) to quantify the percentage of GFP+ area occupied by target cells in each well. […]

[2] = system: 3LL ΔNRAS cells; assay: Syngeneic tumor model, 3LL ΔNRAS cells or CD47-knockout variant in C57BL/6 mice; conditions: sotorasib 30 mg/kg five times weekly

Row | Compound | enhancement of macrophage-mediated cytotoxicity [1] | tumor growth, wild-type 3LL ΔNRAS tumors [2]
1 | C#Cc1cccc(Nc2ncnc3cc(OCCOC)c(OCCOC)cc23)c1 [erlotinib] | over 4 fold | 
2 | C=CC(=O)N1CCN(c2nc(=O)n(-c3c(C)ccnc3C(C)C)c3nc(-c4c(O)cccc4F)c(F)cc23)[C@@H](C)C1 [sotorasib] |  | able to inhibit tumor growth as a single agent
